Measurements published in publication PMC5048756.
These are yes or no findings as the source states them, for the method shown. Binding seen in cells or lysates may run through a third protein. Some binding calls cover weakened binding; strength is not graded here. Tags and fused reporters may be left off the sequences shown.

The chains behind the UniProt entries cited, without tags or fusion partners.
UniProt P07356: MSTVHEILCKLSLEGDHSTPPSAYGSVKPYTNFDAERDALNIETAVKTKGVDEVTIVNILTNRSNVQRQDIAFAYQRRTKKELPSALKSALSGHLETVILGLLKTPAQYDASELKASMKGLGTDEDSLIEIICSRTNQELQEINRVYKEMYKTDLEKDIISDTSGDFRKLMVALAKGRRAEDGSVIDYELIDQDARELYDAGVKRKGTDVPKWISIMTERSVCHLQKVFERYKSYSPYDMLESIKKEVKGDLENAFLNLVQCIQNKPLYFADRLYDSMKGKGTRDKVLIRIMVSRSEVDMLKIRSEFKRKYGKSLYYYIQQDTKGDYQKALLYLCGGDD

T1: FLAG-tagged STAT1α (STAT1α^FLAG) (UniProt P42225)
T1 sequence: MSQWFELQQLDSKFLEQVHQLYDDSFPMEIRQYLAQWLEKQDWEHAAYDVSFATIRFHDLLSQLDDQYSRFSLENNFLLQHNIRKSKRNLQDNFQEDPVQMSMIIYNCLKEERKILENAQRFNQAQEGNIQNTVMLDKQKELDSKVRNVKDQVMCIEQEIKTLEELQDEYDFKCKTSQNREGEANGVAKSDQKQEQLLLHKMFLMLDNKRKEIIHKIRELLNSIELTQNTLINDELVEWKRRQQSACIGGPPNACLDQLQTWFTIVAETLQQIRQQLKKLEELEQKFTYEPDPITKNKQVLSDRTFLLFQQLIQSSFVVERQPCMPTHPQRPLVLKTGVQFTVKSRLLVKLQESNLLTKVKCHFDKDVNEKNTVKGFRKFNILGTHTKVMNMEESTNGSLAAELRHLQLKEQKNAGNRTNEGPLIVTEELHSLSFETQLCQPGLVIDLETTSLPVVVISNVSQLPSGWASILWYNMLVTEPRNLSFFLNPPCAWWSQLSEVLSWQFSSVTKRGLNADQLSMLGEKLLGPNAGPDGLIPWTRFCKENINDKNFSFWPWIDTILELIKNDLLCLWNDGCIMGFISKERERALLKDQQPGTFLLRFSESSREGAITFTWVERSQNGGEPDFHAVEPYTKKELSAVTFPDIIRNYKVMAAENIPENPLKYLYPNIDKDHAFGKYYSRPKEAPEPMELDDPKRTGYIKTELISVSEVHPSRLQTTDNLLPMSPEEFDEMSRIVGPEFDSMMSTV

B1: protein phosphatase 1B (PPM1B) (enzyme, UniProt P36993 1-390)
chain: MGAFLDKPKTEKHNAHGAGNGLRYGLSSMQGWRVEMEDAHTAVVGIPHGLDNWSFFAVYDGHAGSRVANYCSTHLLEHITTNEDFRAADKSGSALEPSVESVKTGIRTGFLKIDEYMRNFSDLRNGMDRSGSTAVGVMVSPTHMYFINCGDSRAVLCRNGQVCFSTQDHKPCNPVEKERIQNAGGSVMIQRVNGSLAVSRALGDYDYKCVDGKGPTEQLVSPEPEVYEIVRAEEDEFVVLACDGIWDVMSNEELCEFVKSRLEVSDDLENVCNWVVDTCLHKGSRDNMSVVLVCFSNAPKVSEEAVKRDSELDKHLESRVEEIMQKSGEEGMPDLAHVMRILSAENIPNLPPGGGLAGKRHVIEAVYSRLNPHKDNDGGAGDLEDSLVAL
B2: perforin (protein, UniProt P10820 21-554)
chain: PCYTATRSECKQKHKFVPGVWMAGEGMDVTTLRRSGSFPVNTQRFLRPDRTCTLCKNSLMRDATQRLPVAITHWRPHSSHCQRNVAAAKVHSTEGVAREAAANINNDWRVGLDVNPRPEANMRASVAGSHSKVANFAAEKTYQDQYNFNSDTVECRMYSFRLVQKPPLHLDFKKALRALPRNFNSSTEHAYHRLISSYGTHFITAVDLGGRISVLTALRTCQLTLNGLTADEVGDCLNVEAQVSIGAQASVSSEYKACEEKKKQHKMATSFHQTYRERHVEVLGGPLDSTHDLLFGNQATPEQFSTWTASLPSNPGLVDYSLEPLHTLLEEQNPKREALRQAISHYIMSRARWQNCSRPCRSGQHKSSHDSCQCECQDSKVTNQDCCPRQRGLAHLVVSNFRAEHLWGDYTTATDAYLKVFFGGQEFRTGVVWNNNNPRWTDKMDFENVLLSTGGPLRVQVWDADYGWDDDLLGSCDRSPHSGFHEVTCELNHGRVKFSYHAKCLPHLTGGTCLEYAPQGLLGDPPGNRSGAVW

target: T1, FLAG-tagged STAT1α (STAT1α^FLAG); assay: co-IP; STAT1α^FLAG precipitated with ANTI-FLAG M2 Affinity Gel from lysates of Stat1^ind NK cells, unstimulated or co-incubated for 30 min with Jurkat cells; IP lysis buffer 50 mM HEPES pH 7.5, 0.1% Tween-20, 150 mM NaCl, 1 mM EDTA; Western blot of the eluate

binding, binds:
annexin A2 (from UniProt P07356 1-339)
B1
B2
